Test results reported in patent US9521848B2, “Tetrazolinone compound and use therefor” (Sumitomo Chemical Company, Limited, priority 2013, dated 2016).
Like-named read-outs stand apart in the source and are kept apart here. Some entries share one result that the patent states for a list of compounds.

Assays:
Assay type in all cases: in vivo
[1] = tested on: rice blast fungus (Magnaporthe grisea); settings: rice (NIHONBARE), 6 days in contact with infected seedlings
[2] = tested on: wheat rust fungus (Puccinia recondita); experiment: Wheat rust control test, foliar spray before inoculation (Test Examples 3, 4, Comparative Test Example); settings: wheat (SHIROGANE), inoculated 5 days after spraying
Experimental: The control effect was evaluated by visually observing the area of lesion spots on each of test plants at the time of investigation, and comparing the area of lesion spots on a plant treated with the present compound with that on an untreated plant.
(§1) Each of plastic pots was filled with sandy loam and wheat (cultivar: SHIROGANE) was sowed and grown in a greenhouse for 9 days. Then, each water dilution containing a surfactant prepared by adjusting so as to contain a predetermined concentration (500 ppm) of any one compound of the present compounds 1, 18, 19, 20, 21, 27, 30, and 38 was sprayed over stems and leaves of the wheat so that it sufficiently adhered to the surface of the leaves of the wheat. After spraying, the plant was air-dried so as to dry the dilution on the surface of the leaves. After spraying, the plant was air-dried and cultivated at 20° C. for 5 days under illumination, and then inoculated by sprinkling with spores of wheat rust fungus (Puccinia recondita). After the inoculation, the plant was left to stand at 23° C. for one day under dark and high humidity condition, and cultivated under illumination at 20° C. for 8 days, and then the area of lesion spots was investigated.
as §1, with “concentration (200” for “concentration (500”, “1, 2, 3, 4, 5,” for “1,”, “21, 23, 25,” for “21, 27, 30,”, “and 26” for “and 38”, “wheat.” for “wheat. After spraying, the plant was air-dried so as to dry the dilution on the surface of the leaves.”
Each of plastic pots was filled with sandy loam and wheat (cultivar: SHIROGANE) was sowed and grown in a greenhouse for 9 days. Then, each water dilution containing a surfactant prepared by adjusting so as to contain a predetermined concentration (200 ppm) of any one compound of 1-[2-{5-phenoxypyridin-3-yloxymethyl}-3-methylphenyl]-4-methyl-1,4-dihydrotetrazol-5-one and the present compound 63 was sprayed over stems and leaves of the wheat so that it sufficiently adhered to the surface of the leaves of the wheat. After spraying, the plant was air-dried and cultivated at 20° C. for 5 days under illumination, and then inoculated by sprinkling with spores of wheat rust fungus (Puccinia recondita). After the inoculation, the plant was left to stand at 23° C. for one day under dark and high humidity condition, and cultivated under illumination at 20° C. for 8 days, and then the area of lesion spots was investigated. As a result, the area of lesion spots on the plant treated with 1-[2-{5-phenoxypyridin-3-yloxymethyl}-3-methylphenyl]-4-methyl-1,4-dihydrotetrazol-5-one was 70% or more of that on an untreated plant, whereas, the area of lesion spots on the plant treated with the present compound 63 was 30% or less of that on an untreated plant.

[3] = tested on: tomato late blight fungus (Phytophthora infestans); settings: 200 ppm foliar spray; tomato (PATIO) seedling

With `Cc1cccc(-n2nnn(C)c2=O)c1COc1ccc(-c2ccccc2)c(C)n1` [Present Compound 1, 1-[2-(5-phenyl-6-methyl-pyridin-2-yloxymethyl)-3-methylphenyl]-4-methyl-1,4-dihydrotetrazol-5-one] the “lesion area on the treated plant with respect to the lesion area on the non-treated plant” value (“lesion area … on the non-treated plant” for short) ([1]; 200 ppm foliar spray) was no more than 30%, the “lesion area … on the non-treated plant” value ([1]; 500 ppm foliar spray) was no more than 30% and the “area of lesion spots on the treated plant relative to that on an untreated plant” value ([2]; 200 ppm foliar spray) was no more than 30%. For the same molecule, the “area of lesion spots on the treated plant relative to that on an untreated plant” value ([2]; 500 ppm foliar spray) was no more than 30% and the “area of lesion spots on the treated plant relative to that on an untreated plant” value [3] was no more than 30%.
For `Cc1cccc(-n2nnn(C)c2=O)c1COc1ccc(-c2cccc(Cl)c2)c(C)n1` [Present Compound 2], the “lesion area … on the non-treated plant” value ([1]; 200 ppm foliar spray) was no more than 30%, the “lesion area … on the non-treated plant” value ([1]; 500 ppm foliar spray) was no more than 30% and the “area of lesion spots on the treated plant relative to that on an untreated plant” value ([2]; 200 ppm foliar spray) was no more than 30%.
`Cc1cccc(-n2nnn(C)c2=O)c1COc1ccc(-c2ccc(C#N)cc2)c(C)n1` [Present Compound 4] was tested, and the “lesion area … on the non-treated plant” value ([1]; 200 ppm foliar spray) was no more than 30%, the “area of lesion spots on the treated plant relative to that on an untreated plant” value ([2]; 200 ppm foliar spray) was no more than 30% and the “area of lesion spots on the treated plant relative to that on an untreated plant” value [3] was no more than 30%.
`COc1ccccc1-c1ccc(OCc2c(C)cccc2-n2nnn(C)c2=O)nc1C` [Present Compound 5] was tested, and the “lesion area … on the non-treated plant” value ([1]; 200 ppm foliar spray) was no more than 30% and the “area of lesion spots on the treated plant relative to that on an untreated plant” value ([2]; 200 ppm foliar spray) was no more than 30%.
With `Cc1cc(-c2ccccc2)cnc1OCc1c(C)cccc1-n1nnn(C)c1=O` [Present Compound 18, 1-[2-(5-phenyl-3-methyl-pyridin-2-yloxymethyl)-3-methylphenyl]-4-methyl-1,4-dihydrotetrazol-5-one] the “lesion area … on the non-treated plant” value ([1]; 200 ppm foliar spray) was no more than 30%, the “lesion area … on the non-treated plant” value ([1]; 500 ppm foliar spray) was no more than 30% and the “area of lesion spots on the treated plant relative to that on an untreated plant” value ([2]; 200 ppm foliar spray) was no more than 30%. For the same molecule, the “area of lesion spots on the treated plant relative to that on an untreated plant” value ([2]; 500 ppm foliar spray) was no more than 30%.
`Cc1ccccc1-c1cnc(OCc2c(C)cccc2-n2nnn(C)c2=O)c(C)c1` [Present Compound 19] was tested, and the “lesion area … on the non-treated plant” value ([1]; 200 ppm foliar spray) was no more than 30%, the “lesion area … on the non-treated plant” value ([1]; 500 ppm foliar spray) was no more than 30% and the “area of lesion spots on the treated plant relative to that on an untreated plant” value ([2]; 200 ppm foliar spray) was no more than 30%. For the same molecule, the “area of lesion spots on the treated plant relative to that on an untreated plant” value ([2]; 500 ppm foliar spray) was no more than 30%.
With `Cc1cccc(-c2cnc(OCc3c(C)cccc3-n3nnn(C)c3=O)c(C)c2)c1` [Present Compound 20] the “lesion area … on the non-treated plant” value ([1]; 200 ppm foliar spray) was no more than 30%, the “lesion area … on the non-treated plant” value ([1]; 500 ppm foliar spray) was no more than 30% and the “area of lesion spots on the treated plant relative to that on an untreated plant” value ([2]; 200 ppm foliar spray) was no more than 30%. The “area of lesion spots on the treated plant relative to that on an untreated plant” value ([2]; 500 ppm foliar spray) was no more than 30%.
`Cc1ccc(-c2cnc(OCc3c(C)cccc3-n3nnn(C)c3=O)c(C)c2)cc1` [Present Compound 21] was tested, and the “lesion area … on the non-treated plant” value ([1]; 200 ppm foliar spray) was no more than 30%, the “area of lesion spots on the treated plant relative to that on an untreated plant” value ([2]; 200 ppm foliar spray) was no more than 30% and the “area of lesion spots on the treated plant relative to that on an untreated plant” value ([2]; 500 ppm foliar spray) was no more than 30%.
In the case of `Cc1cc(-c2cccnc2)cnc1OCc1c(C)cccc1-n1nnn(C)c1=O` [Present Compound 23], the “lesion area … on the non-treated plant” value ([1]; 200 ppm foliar spray) is reported as no more than 30% and the “area of lesion spots on the treated plant relative to that on an untreated plant” value ([2]; 200 ppm foliar spray) is reported as no more than 30%.
With `Cc1cccc(-c2ccc(OCc3c(C)cccc3-n3nnn(C)c3=O)c(C)n2)c1` [Present Compound 25] the “lesion area … on the non-treated plant” value ([1]; 200 ppm foliar spray) was no more than 30%, the “lesion area … on the non-treated plant” value ([1]; 500 ppm foliar spray) was no more than 30% and the “area of lesion spots on the treated plant relative to that on an untreated plant” value ([2]; 200 ppm foliar spray) was no more than 30%.
`Cc1cccc(-c2cnc(OCc3c(C)cccc3-n3nnn(C)c3=O)c(C)c2)n1` [Present Compound 26, 1-{2-[5-(6-methylpyridin-2-yl)-3-methylpyridin-2-yloxymethyl]-3-methylphenyl}-4-methyl-1,4-dihydro-tetrazol-5-one] was tested, and the “lesion area … on the non-treated plant” value ([1]; 200 ppm foliar spray) was no more than 30%, the “lesion area … on the non-treated plant” value ([1]; 500 ppm foliar spray) was no more than 30% and the “area of lesion spots on the treated plant relative to that on an untreated plant” value ([2]; 200 ppm foliar spray) was no more than 30%. For the same molecule, the “area of lesion spots on the treated plant relative to that on an untreated plant” value [3] was no more than 30%.
In the case of `COc1ccc(-c2ccc(OCc3c(C)cccc3-n3nnn(C)c3=O)nc2C)c(OC)c1` [Present Compound 27], the “area of lesion spots on the treated plant relative to that on an untreated plant” value ([2]; 500 ppm foliar spray) is reported as no more than 30%.
`Cc1cccc(-n2nnn(C)c2=O)c1COc1ccc(-c2ccc(F)cc2C#N)c(C)n1` [Present Compound 29] was tested, and the “lesion area … on the non-treated plant” value ([1]; 500 ppm foliar spray) was no more than 30%.
With `Cc1nc(OCc2c(C3CC3)cccc2-n2nnn(C)c2=O)ccc1-c1ccccc1` [Present Compound 30, 1-[2-(5-phenyl-6-methyl-pyridin-2-yloxymethyl)-3-cyclopropylphenyl]-4-methyl-1,4-dihydrotetrazol-5-one] the “lesion area … on the non-treated plant” value ([1]; 500 ppm foliar spray) was no more than 30% and the “area of lesion spots on the treated plant relative to that on an untreated plant” value ([2]; 500 ppm foliar spray) was no more than 30%.
`Cc1cc(-c2ccccc2)c(C)nc1OCc1c(C)cccc1-n1nnn(C)c1=O` [Present Compound 38, 1-[2-(3,6-dimethyl-5-phenylpyridin-2-yloxymethyl)-3-methylphenyl]-4-methyl-1,4-dihydrotetrazol-5-one] was tested, and the “lesion area … on the non-treated plant” value ([1]; 500 ppm foliar spray) was no more than 30% and the “area of lesion spots on the treated plant relative to that on an untreated plant” value ([2]; 500 ppm foliar spray) was no more than 30%.
